As a reminder, the inhibition is the change of the read-out against control, counted positive when it falls.

The assay relates to Cryptosporidium parvum. Kind of assay: qRT-PCR assay of the growth of C. parvum in vitro in HCT-8 host cells (primary and secondary screening, EC50). It is filed as cell-based. The following applies: primary screening at 10 uM. For orientation: Quantitative PCR measures a nucleic acid by following its amplification.

On to `NCCCC(=O)O` [gamma-AMINOBUTYRIC ACID], for which the inhibition at 10 µM is -17.1%.
